Source: PubChem BioAssay AID504764 (Drosophila RNAi Screening Center, 2011)

- Assay: 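Genes whose knock-down alters Notch-dependent transcription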 (primary screen)
- System: Drosophila Kc167 cells
- Reagents: long dsRNA against Drosophila genes
- Time to read-out: about 5 days (4 days dsRNA, then 24 h after transfection)
- Treatment: transfection of constitutively active membrane-tethered Notch lacking the extracellular domain, read 24 h later
- Measured: 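Light from a Notch-responsive E(spl)m3 luciferase reporter under active Notch, with control-promoter and no-Notch reporter wells to normalise; raw counts from paired wells a and b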
- Direction: induced reporter light, run 1, well a and induced reporter light, run 1, well b: higher = more light from the Notch target reporter with active Notch; control promoter light, run 1, well a and control promoter light, run 1, well b: higher = more light from the viral control promoter (cell number, transfection, viability); uninduced reporter light, run 1, well a: higher = more light from the Notch target reporter without active Notch
- Active means: 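Hit if the duplicate-averaged log2 ratio of induced to control-promoter light gives a plate-wise z beyond ±2, or induced to uninduced beyond ±1.8; weak-control or discordant-duplicate wells dropped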
- Calls: active = modifier hit (raised or lowered Notch signal); inactive = not a hit
In all, the deposit lists about 22,000 reagents; below is a random part of those that have a named target and a result. In the full data, 403 (1.9%) were called active. 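Unnormalised raw counts per well; ratio z-scores behind the hit calls and whether each hit raises or lowers signal are not deposited.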 Reagents against one gene are numbered here. The record does not give: the amount of reagent.

Alg9 (ALG9, alpha-1,2-mannosyltransferase) | induced reporter light, run 1, well a = 100; induced reporter light, run 1, well b = 25; control promoter light, run 1, well a = 1395; control promoter light, run 1, well b = 205; uninduced reporter light, run 1, well a = 5; activity call = inactive
CG9876 | induced reporter light, run 1, well a = 1.67e5; induced reporter light, run 1, well b = 1.56e5; control promoter light, run 1, well a = 1.23e5; control promoter light, run 1, well b = 1.11e5; uninduced reporter light, run 1, well a = 11365; activity call = inactive
CG32102 | activity call = inactive
CG16711 | induced reporter light, run 1, well a = 1.63e5; induced reporter light, run 1, well b = 1.53e5; control promoter light, run 1, well a = 2.18e5; control promoter light, run 1, well b = 2.54e5; uninduced reporter light, run 1, well a = 10550; activity call = inactive
onecut | induced reporter light, run 1, well a = 1.07e5; induced reporter light, run 1, well b = 1.26e5; control promoter light, run 1, well a = 2.20e5; control promoter light, run 1, well b = 2.30e5; uninduced reporter light, run 1, well a = 8775; activity call = inactive
CG10086 | induced reporter light, run 1, well a = 83690; induced reporter light, run 1, well b = 93300; control promoter light, run 1, well a = 1.08e5; control promoter light, run 1, well b = 78930; uninduced reporter light, run 1, well a = 6090; activity call = inactive
sfl (sulfateless) #1 | induced reporter light, run 1, well a = 1.68e5; induced reporter light, run 1, well b = 1.74e5; control promoter light, run 1, well a = 1.37e5; control promoter light, run 1, well b = 1.42e5; uninduced reporter light, run 1, well a = 13300; activity call = inactive
sfl (sulfateless) #2 | induced reporter light, run 1, well a = 1.41e5; induced reporter light, run 1, well b = 1.41e5; control promoter light, run 1, well a = 1.59e5; control promoter light, run 1, well b = 1.77e5; uninduced reporter light, run 1, well a = 13085; activity call = inactive
Mrp4 (Multidrug resistance protein 4) | induced reporter light, run 1, well a = 69245; induced reporter light, run 1, well b = 65850; control promoter light, run 1, well a = 84340; control promoter light, run 1, well b = 57120; uninduced reporter light, run 1, well a = 4928; activity call = inactive

Continued, starting with the last 2 of the part before.
sfl (sulfateless) #2 | induced reporter light, run 1, well a = 1.41e5; induced reporter light, run 1, well b = 1.41e5; control promoter light, run 1, well a = 1.59e5; control promoter light, run 1, well b = 1.77e5; uninduced reporter light, run 1, well a = 13085; activity call = inactive
Mrp4 (Multidrug resistance protein 4) | induced reporter light, run 1, well a = 69245; induced reporter light, run 1, well b = 65850; control promoter light, run 1, well a = 84340; control promoter light, run 1, well b = 57120; uninduced reporter light, run 1, well a = 4928; activity call = inactive
l(2)k01209 (lethal (2) k01209) | induced reporter light, run 1, well a = 1.08e5; induced reporter light, run 1, well b = 85925; control promoter light, run 1, well a = 1.04e5; control promoter light, run 1, well b = 1.09e5; uninduced reporter light, run 1, well a = 10375; activity call = inactive
CG31872 #1 | induced reporter light, run 1, well a = 1.04e5; induced reporter light, run 1, well b = 1.56e5; control promoter light, run 1, well a = 70960; control promoter light, run 1, well b = 95960; uninduced reporter light, run 1, well a = 15842; activity call = inactive
CG31872 #2 | induced reporter light, run 1, well a = 1.45e5; induced reporter light, run 1, well b = 1.47e5; control promoter light, run 1, well a = 78660; control promoter light, run 1, well b = 1.09e5; uninduced reporter light, run 1, well a = 16385; activity call = inactive
LUBEL (Linear Ubiquitin E3 ligase) | induced reporter light, run 1, well a = 66725; induced reporter light, run 1, well b = 43340; control promoter light, run 1, well a = 69430; control promoter light, run 1, well b = 79535; uninduced reporter light, run 1, well a = 3945; activity call = inactive
glo (glorund) | induced reporter light, run 1, well a = 73185; induced reporter light, run 1, well b = 67160; control promoter light, run 1, well a = 88235; control promoter light, run 1, well b = 65140; uninduced reporter light, run 1, well a = 7438; activity call = inactive
Nup107 (Nucleoporin 107kD) | induced reporter light, run 1, well a = 65945; induced reporter light, run 1, well b = 75960; control promoter light, run 1, well a = 54575; control promoter light, run 1, well b = 65330; uninduced reporter light, run 1, well a = 9370; activity call = inactive
Elo68beta (Elongase 68beta) | induced reporter light, run 1, well a = 1.34e5; induced reporter light, run 1, well b = 1.31e5; control promoter light, run 1, well a = 1.90e5; control promoter light, run 1, well b = 1.34e5; uninduced reporter light, run 1, well a = 7260; activity call = inactive
Usp5 (Ubiquitin specific protease 5) | induced reporter light, run 1, well a = 49850; induced reporter light, run 1, well b = 60600; control promoter light, run 1, well a = 67425; control promoter light, run 1, well b = 57620; uninduced reporter light, run 1, well a = 3200; activity call = inactive
qvr (quiver) | induced reporter light, run 1, well a = 2.50e5; induced reporter light, run 1, well b = 1.91e5; control promoter light, run 1, well a = 2.95e5; control promoter light, run 1, well b = 3.10e5; uninduced reporter light, run 1, well a = 23665; activity call = inactive
